PubChem BioAssay AID504786 – Drosophila RNAi Screening Center – 2011

Test: 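Knock-downs reducing HIF reporter induction by the iron chelator DFO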 (primary screen)
Cell system: Drosophila S2 cells with a stable HIF luciferase reporter
Reagents: long dsRNA against Drosophila genes, about 0.2 µg dsRNA per well of a 384-well plate
Duration: three days of knock-down, then 20 h of DFO before reading
Conditions: desferrioxamine (DFO) at 100 µM, an iron chelator that mimics hypoxia, for 20 h
Read-out: 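HIF reporter luminescence in cells given 100 µM DFO for 20 h, using the mouse ldh-a hypoxia-response element, scored as per-plate z-scores; higher means greater loss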
Scale: z-score: higher = stronger loss of HIF reporter signal
The screen tested about 21,000 reagents; below is an unselected part of those with a known target gene and a result. 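Primary screen; positive scores mean lost reporter signal, so the sign may be inverted from the usual convention.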

The first 3 records, ahead of the listing:
Gene,DRSC id,"z-score, replicate 1","z-score, replicate 2"
CG2145,DRSC19835,-0.3,-0.5
vih,DRSC09778,0,1.1
CG12126,DRSC06103,-0.2,0.4

The listing, from the start:
Gene,DRSC id,"z-score, replicate 1","z-score, replicate 2"
CG2145,DRSC19835,-0.3,-0.5
vih,DRSC09778,0,1.1
CG12126,DRSC06103,-0.2,0.4
t-Grip91,DRSC01506,-0.3,-0.1
CG10428,DRSC02054,-0.4,-0.3
CG17477,DRSC15239,-0.6,-0.6
Pex3,DRSC10731,-0.4,-0.5
l(2)k05819,DRSC00826,-0.3,-0.5
CG5866,DRSC15900,-0.2,-0.3
pkm,DRSC19674,-0.3,-0.8
CG14459,DRSC11719,4.2,5.3
CG10376,DRSC02049,-0.4,-0.1
tbrd-1,DRSC14601,-0.2,-0.5
Rpn7,DRSC16841,7.6,5.5
SP1173,DRSC11277,-0.3,-0.4
pygo,DRSC14322,1.6,1.2
Srrm1,DRSC09835,-0.3,-0.5
Hs3st-B,DRSC20067,-0.1,-0.2
CG4036,DRSC02735,-0.3,-0.9
CG5280,DRSC10498,-0.4,-0.2
Hml,DRSC11183,-0.3,-0.1
Srp9,DRSC10973,-0.6,0.6
CG31313,DRSC13044,0.3,0
CG7322,DRSC20036,-0.4,-0.2
CG13230,DRSC06350,0.1,-0.1
CG34109,DRSC02169,-0.2,-0.1
CG34109,DRSC02224,-0.1,0
CG34109,DRSC02225,-0.2,-0.7
Abcd1,DRSC17157,-0.1,-0.3
CG15515,DRSC15054,-0.2,-0.6
Map60,DRSC07464,-0.3,-0.3
Elys,DRSC19571,-0.3,0.1
Tsp3A,DRSC18656,-0.4,-0.4
TwdlN,DRSC15813,0.5,2.9
